Data from PMC3854790, “CRIS—A Novel cAMP-Binding Protein Controlling Spermiogenesis and the Development of Flagellar Bending” (PLoS Genetics, 2013).

T1: CRIS (cyclic nucleotide receptor involved in sperm function) (mouse (endogenous in sperm precursor cells)) (UniProt Q9D5U8)
T1 sequence: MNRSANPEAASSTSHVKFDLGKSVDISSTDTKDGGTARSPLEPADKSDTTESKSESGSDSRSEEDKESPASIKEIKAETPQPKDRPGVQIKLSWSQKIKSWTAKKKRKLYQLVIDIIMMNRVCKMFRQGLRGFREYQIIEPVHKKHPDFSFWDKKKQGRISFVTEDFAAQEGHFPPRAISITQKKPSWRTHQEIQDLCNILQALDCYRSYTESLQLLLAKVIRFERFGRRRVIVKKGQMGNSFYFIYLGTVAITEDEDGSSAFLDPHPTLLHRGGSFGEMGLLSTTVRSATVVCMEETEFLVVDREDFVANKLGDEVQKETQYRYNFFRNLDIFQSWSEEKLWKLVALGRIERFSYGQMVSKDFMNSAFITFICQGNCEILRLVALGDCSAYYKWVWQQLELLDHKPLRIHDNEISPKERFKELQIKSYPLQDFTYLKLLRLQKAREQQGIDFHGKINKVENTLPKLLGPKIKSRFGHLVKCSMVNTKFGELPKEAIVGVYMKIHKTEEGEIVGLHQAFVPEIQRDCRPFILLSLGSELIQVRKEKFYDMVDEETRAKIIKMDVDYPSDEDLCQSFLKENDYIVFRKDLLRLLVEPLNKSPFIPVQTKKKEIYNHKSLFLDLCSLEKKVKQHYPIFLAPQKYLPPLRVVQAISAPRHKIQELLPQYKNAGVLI

B1: Mediator of RNA polymerase II transcription subunit 17 (protein, UniProt Q8VCD5 1-649)
chain: MSGVRAVRISIESACEKQVQEVGLDGTETYLQPLSMSQNLARLAQRIDFSQGSGSEEEEAAGPDGDAPDWGGAGADQDDEEGLVKFQPSLWPWDSVRNNLRSALTEMCVLYDVLSIVRDKKFMTLDPVSQDALPPKQSPQTLQLISKKKSLAGAAQILLKGAERLTKSVAENQENKLQRDFNSELLRLRQHWKLRKVGDKILGDLSYRSAGSLFPHHGTFEVIKNTDIDLDKKIPEDYCPLDVQIPSDLEGSAYIKVSIQKQAPDIGDLGTVNLFKRPLPKSKPGSPHWQTKLEAAQNVLLCKEIFAQLSREAVQIKSQIPHIVVKNQIISQPFPSLQLSISLCHSSDDKKSQKCAAEKPGQEDHLYVLEHNLHLLIREFHKQTLSSIVMPHPASAPFGHKRMRLSGPQAFDKNEINSIQSTEGLLEKIIKQAKHIFLRSRTAATIDSLASRIEDPQIQAHWSNINDVYESSVKVLITSQGYEQICKSIQLQLNIGVEQVRVVHRDGRVIMLSHQEQELQDFLLSQMSQHQVHAVQQLAKVMGWQVLSFSNHVGLGPIESIGNASAITVASPSGDYAISVRNGPESGSKIMVQFPRNQCKDLPKSDVLQDSKWSHLRGPFKEVQWNKMEGRNFVYKMELLMSALSPCLL
B2: Protein KTI12 homolog (protein, UniProt Q9D1R2 1-351)
chain: MPLVVVCGLPSSGKSQRTEELRRALASEGRAVYVVDDASVLGAQDPTVYGDSAGEKALRAALRAAVERRLSRQDVVILDSVNYIKGFRYELYCLARAARTPLCLLYCVRPNWPSRELREASASENRDLAVSVSWRPRAETGGKSQAAGAVEEQRATSPVANGGVLAAVSKELDPEEILPSNPSAVMTPGSEKSAEPASCAFPPEVLESLALRFESPDSRNRWDRPLFTVVGLEEPLPLAEIRSALFENRAPPPHQSTQSQPLASGSFLHQLDQATSQVLTAVMEAQKSAVPGDFLKLPGTTEPLRFTRPLTLAELSRLRRQFISYTKMHPNNENLPQLANMFLQYLNQSLH
B3: ATP-binding cassette sub-family F member 2 (protein, UniProt Q99LE6 1-628)
chain: MPSDLAKKKAAKKKEAAKARQRPRKGHEENGDAVTEPQVAEEKIEEANGRETTGDGEVDLLTKELEDFEMKKAAARAVTGVLASHPNSTDVHIINLSLTFHGQELLSDTKLELNSGRRYGLIGLNGIGKSMLLSAIGKREVPIPEHIDIYHLTREMPPSEKTPLQCVMEVDTERAMLEREAERLAHEDAECEKLMELYERLEELDADKAEMRASRILHGLGFTPAMQRKKLKDFSGGWRMRVALARALFIRPFMLLLDEPTNHLDLDACVWLEEELKTFKRILVLVSHSQDFLNGVCTNIIHMHNKKLKYYTGNYDQYVKTRLELEENQMKRFHWEQDQIAHMKNYIARFGHGSAKLARQAQSKEKTLQKMMASGLTERVVSDKTLSFYFPPCGKIPPPVIMVQNVSFKYTKDGPCIYNNLEFGIDLDTRVALVGPNGAGKSTLLKLLTGELLPTDGMIRKHSHVKIGRYHQHLQEQLDLDLSPLEYMMKCYPEIKEKEEMRKIIGRYGLTGKQQVSPIRNLSDGQKCRVCLAWLAWQNPHMLFLDEPTNHLDIETIDALADAINEFEGGMMLVSHDFRLIQQVAQEIWVCEKQTITKWPGDILAYKEHLKSKLVDEEPQLTKRTHNV
B4: Sorting nexin-4 (protein, UniProt Q91YJ2 1-450)
chain: MEQAPPDPEKLLQPGPLEPLGGPGAVLEAAVGEENEGTREDGSGVDTMTGNNFWLKKIEISVSEAEKRTGRNAVNMQETYTAYLIETRSVEHADGQSVLTDSLWRRYSEFELLRNYLLVYYPHVVVPPLPEKRAEFVWHKLSADNMDPDFVERRRVGLENFLLRVASHPVLCRDKIFYSFLTQEGNWKETVNETGFQLKADSRLKALNATFRVKNPDKRFTELRHYSDELQSVISHLLRVRARVADRLYGVYKVHGNYGRVFSEWSAIEKEMGDGLQSAGHHMDVYASSIDDILEDEEHYADQLKEYLFYAEALRAVCRKHELMQYDLETAAQDLAAKKQQCEELATGTVRTFSLKGMTTKLFGQETPEQREARIKVLEEQINEGEQQLKSKNLEGREFVKNAWADIERFKEQKNRDLKEALISYAVMQISMCKKGIQVWTNAKECFSKM
B5: IQ calmodulin-binding motif-containing protein 1 (protein, UniProt Q8BP00-1 1-598)
chain: MKPAGTDPRILSLAAEVAKSPEQNVPVILLKLKEIINNTPLGSSELKKVKQDIYCYDLIQYCLLVLSQDSSRIQGGWSTISQLTQILSHCCVGLEPGEDGEEFYKELLPSAAENFLILGRRLQTCFINATKGEEQDKLLHFFQIVTDSLFWLLGGHVQLIQNVLQSDHFLHLLQTDNVQIGASVMTLLQNILQINSGNLLKIEGKALHSILDEILFKLLSTPSPVIRSTATKLLLVLAESHQEILILLRLSACYKGLRSLLNKQETLTEFSRELRQLVDLLTPKIHQEVEEQKLHKAACLIQAYWKGFQTRKRLKKLPSAVIALQRSFRSKRTKMMLELNRQKEEEDLRLKLQLQRQRAMRLSRESRLNMLEIIHPGQVEKYNREMEEKSALTIQKHWRGYRERKNFRQQRPSLTEYKAAVTLQRAVLKFLAKCRKKKKLFASWHGLQELTDARRVELKQQVDDYVKRHPCSQMSEAASRELHAQAQERLQHYFMGRAIEERAQQHREALMAQISTNIEQLMKAPSLKEAEGKEPEQFLSRSRPVAAKAKQAHLTTLKHIQAPWWKKLGEEPGDEVDVPKDELSIDLGMLFIGGTKPP
B6: DCC-interacting protein 13-alpha (protein, UniProt Q8K3H0 1-707)
chain: MPGIDKLPIEETLEDSPQTRSLLGVFEEDATAISNYMNQLYQAMHRIYDAQNELSAATHLTSKLLKEYEKQRFPLGGDDEVMSSTLQQFSKVIDELSSCHAVLSTQLADAMMFPISQFKERDLKEILTLKEVFQIASNDHDAAINRYSRLSKKRENDKVKYEVTEDVYTSRKKQHQTMMHYFCALNTLQYKKKIALLEPLLGYMQAQISFFKMGSENLNGQLEEFLANIGTSVQNVRREMDGDVETMQQTIEDLEVASDPLYLPDPDPTKFPINRNLTRKAGYLNARNKTGLVSSTWDRQFYFTQGGNLMSQARGDVAGGLAMDIDNCSVMAVDCEDRRYCFQITSFDGKKSSILQAESKKDHEEWICTINNISKQIYLSENPEETAARVNQSALEAVTPSPSFQQRHESLRPGGQSRPPTARTSSSGSLGSESTNLAALSLDSLVAPDTPIQFDIISPVCEDQPGQAKAFGQGGRRTNPFGESGGSTKSETEDSILHQLFIVRFLGSMEVKSDDHPDVVYETMRQILAARAIHNIFRMTESHLLVTCDCLKLIDPQTQVTRLTFPLPCVVLYATHQENKRLFGFVLRTSGGRSESNLSSVCYIFESNNEGEKICDSVGLAKQIALHAELDRRASEKQKEIERVKEKQQKELSKQKQIEKDLEEQSRLIAASSRPNQAGSEGQLVLSSSQSEESDLGEEGKKRESEA
B7: Tether containing UBX domain for GLUT4 (protein, UniProt Q8VBT9-1 1-550)
chain: MAAPAGGGGSAVSVLAPNGRRHTVKVTPSTVLLQVLEDTCRRQDFNPSEYDLKFQRTVLDLSLQWRFANLPNNAKLEMVPVSRSREGPENIVRIAFQLDDGSRLQDAFCSRQTLWELLSHFAQTRERLQQLGEKTPVCVYMRNEVTGRAALQNTTLQSLGLTGGSATIRFVIKQCDTAGKQESIAVRSKAPGSPVSSLSADQASSSTLLPLNSGEFSRGDLNHEGDANTSGTGLEGGPKPTDAQTKQSTSEPASAPFVPFSGGGQRLGGPSASLRPLTSPSANSSKSFSGPGGPSKPKKPKPGEEPQQEPEPPVDRDPVVYHPDLEDLLQPWPAEVPDEFFEVTVDDVRRRLAQLKSERKRLEEAPLVTKAFREAQMKEKLERYPKVALRVLFPDRYILQGFFRPSETVGDLRDFVRSHLGNPELSFYLFIAPPKMVLDDHTLTLFQANLFPAALVHFGAEEPTGLYLEPGLLEHTVSPSTADVLVARCMSRASGSPPLLPAPDPVSLESEPIAEDGALGPPEPIQGTAQPVKRSLGKVPKWLKLPASKR

Biological target: T1, CRIS (cyclic nucleotide receptor involved in sperm function) (mouse (endogenous in sperm precursor cells))
Experiment: affinity purification with mass spectrometry; co-immunoprecipitation of endogenous CRIS from sperm precursor cells of wild-type mice; 500 µg total lysate on a column of monoclonal antibody 4B2 or 4E4 covalently coupled to Protein G, overnight at 4°C, washed four times with lysis buffer (10 mM Tris/HCl pH 7.6, 140 mM NaCl, 1 mM EDTA, 1% Triton-X 100), eluted in SDS sample buffer, SDS-PAGE, LC-MS/MS; cells of Cris-deficient mice as negative control

Row | Binder | binding
1 | B1 | binds
2 | B2 | binds
3 | B3 | binds
4 | B4 | binds
5 | B5 | binds
6 | B6 | binds
7 | B7 | binds

Results are given in words; binding and its absence hold for the method and conditions named. In cells and extracts the contact can be indirect. A yes stands for co-enrichment or nearness to the bait. Other partners may have been found.
